What all share (assay): SPR
Background: SPR reads the build-up and loss of mass on a sensor chip optically.

Sequences of proteins named here, by UniProt entry; tags and fusion partners are left off. Residues count along the entry.
UniProt Q01705, 828-1058: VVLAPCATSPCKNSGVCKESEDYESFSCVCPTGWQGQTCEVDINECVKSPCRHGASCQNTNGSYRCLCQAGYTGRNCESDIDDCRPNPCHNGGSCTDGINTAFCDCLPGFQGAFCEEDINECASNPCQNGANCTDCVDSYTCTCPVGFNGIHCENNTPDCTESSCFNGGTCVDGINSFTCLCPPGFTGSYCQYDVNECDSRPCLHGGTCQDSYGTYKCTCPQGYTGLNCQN
UniProt Q01705, 294-526: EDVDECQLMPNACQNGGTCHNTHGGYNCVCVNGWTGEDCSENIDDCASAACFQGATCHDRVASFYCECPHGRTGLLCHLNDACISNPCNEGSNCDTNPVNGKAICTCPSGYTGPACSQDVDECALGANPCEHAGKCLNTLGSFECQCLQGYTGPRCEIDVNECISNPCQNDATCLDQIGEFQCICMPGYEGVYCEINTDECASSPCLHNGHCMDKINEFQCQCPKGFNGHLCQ

For assay [1], the target named is Jagged1 full ectodomain (Jagged1^fe), C-terminally biotinylated SPR ligand (mouse) (UniProt Q9QXX0).
In assay [2] the target is Jagged1^C2-EGF13, C-terminally biotinylated SPR ligand (mouse) (UniProt Q9QXX0).
For assay [3], the target named is Jagged1^C2-EGF3,HA, C-terminally biotinylated SPR ligand (mouse) (UniProt Q9QXX0).
The target in assay [4] is Jagged1^C2-EGF7, C-terminally biotinylated SPR ligand (mouse) (UniProt Q9QXX0).
For assay [5], the target named is Jagged1^EGF5-CRD, C-terminally biotinylated SPR ligand (mouse) (UniProt Q9QXX0).
Assay [6] has as its target Notch1^EGF22-27, C-terminally biotinylated SPR ligand (mouse) (UniProt Q01705).
Assay [7] concerns the target Notch1^EGF8-13, C-terminally biotinylated SPR ligand (mouse) (UniProt Q01705).

Results are given in words; binding and its absence hold for the method and conditions named. Some binding calls cover weakened binding; strength is not graded here. For some of these results: Where a sequence is shown, tags or fusion partners need not be part of it.

B1: Jagged1^EGF8-11,Fc (Fc-tagged, covalently dimerized) (Fc fusion)
chain: DIDECASNPCLNGGHCQNEINRFQCLCPTGFSGNLCQLDIDYCEPNPCQNGAQCYNRASDYFCKCPEDYEGKNCSHLKDHCRTTTCEVIDSCTVAMASNDTPEGVRYISSNVCGPHGKCKSQSGGKFTCDCNKGFTGTYCHENINDCESNPCKNGGTCIDGVNSYKCICSDGWEGAHCE
Take B1: the binding result is reported as “binds weakly” in assay [1]; “binds weakly” in assay [2]; “binds weakly” in assay [3]; “binds weakly” in assay [4]; “no binding” in assay [5]; “no binding” in assay [6].

B2: Jagged1^CRD,Fc (Fc-tagged, covalently dimerized) (Fc fusion)
chain: EVSGRSCITMGRVILDGAKWDDDCNTCQCLNGRVACSKVWCGPRPCRLHKSHNECPSGQSCIPVLDDQCFVRPCTGVGECRSSSLQPVKTKCTSDSYYQDNCANITFTFNKEMMSPGLTTEHICSELRNLNILKNVSAEYSIYIACEPSLSANNEIHVAISAEDIRDDGNPVKEITDKIIDLVSKRDGNSSLIAAVAEVRVQRRPLKNRTD
Turning to B2, the binding result is “binds weakly” in assay [1]; “binds weakly” in assay [2]; “binds weakly” in assay [3]; “binds weakly” in assay [4]; “no binding” in assay [5]; “no binding” in assay [6].

B3: Jagged1 full ectodomain, wild type (Jagged1^fe,wt) (domain or fragment)
chain: ASGQFELEILSMQNVNGELQNGNCCGGVRNPGDRKCTRDECDTYFKVCLKEYQSRVTAGGPCSFGSGSTPVIGGNTFNLKASRGNDRNRIVLPFSFAWPRSYTLLVEAWDSSNDTIQPDSIIEKASHSGMINPSRQWQTLKQNTGIAHFEYQIRVTCDDHYYGFGCNKFCRPRDDFFGHYACDQNGNKTCMEGWMGPDCNKAICRQGCSPKHGSCKLPGDCRCQYGWQGLYCDKCIPHPGCVHGTCNEPWQCLCETNWGGQLCDKDLNYCGTHQPCLNRGTCSNTGPDKYQCSCPEGYSGPNCEIAEHACLSDPCHNRGSCKETSSGFECECSPGWTGPTCSTNIDDCSPNNCSHGGTCQDLVNGFKCVCPPQWTGKTCQLDANECEAKPCVNARSCKNLIASYYCDCLPGWMGQNCDININDCLGQCQNDASCRDLVNGYRCICPPGYAGDHCERDIDECASNPCLNGGHCQNEINRFQCLCPTGFSGNLCQLDIDYCEPNPCQNGAQCYNRASDYFCKCPEDYEGKNCSHLKDHCRTTTCEVIDSCTVAMASNDTPEGVRYISSNVCGPHGKCKSQSGGKFTCDCNKGFTGTYCHENINDCESNPCKNGGTCIDGVNSYKCICSDGWEGAHCENNINDCSQNPCHYGGTCRDLVNDFYCDCKNGWKGKTCHSRDSQCDEATCNNGGTCYDEVDTFKCMCPGGWEGTTCNIARNSSCLPNPCHNGGTCVVNGDSFTCVCKEGWEGPICTQNTNDCSPHPCYNSGTCVDGDNWYRCECAPGFAGPDCRININECQSSPCAFGATCVDEINGYQCICPPGHSGAKCHEVSGRSCITMGRVILDGAKWDDDCNTCQCLNGRVACSKVWCGPRPCRLHKSHNECPSGQSCIPVLDDQCFVRPCTGVGECRSSSLQPVKTKCTSDSYYQDNCANITFTFNKEMMSPGLTTEHICSELRNLNILKNVSAEYSIYIACEPSLSANNEIHVAISAEDIRDDGNPVKEITDKIIDLVSKRDGNSSLIAAVAEVRVQRRPLKNRTD
Consider B3, for which, in assay [7], the binding entry is on record as “no binding (tested: 1 µM)”.

The values above are taken from paper doi:10.1101/2021.02.19.432005 (bioRxiv, 2021).
